Test results reported in patent US20190049459A1 (TOKYO INSTITUTE OF TECHNOLOGY, published 2019).
These are yes or no findings as the source states them, for the method shown. Some results given as binding are weak or reduced against the parent protein; the word gives no strength. Sequences can lack the tags named with a protein. Blank lines part the entries; values can stand above or below the binder they belong to.

The chains behind the UniProt entries cited, without tags or fusion partners. Residues count along the entry.
UniProt Q07021, residues 74-282: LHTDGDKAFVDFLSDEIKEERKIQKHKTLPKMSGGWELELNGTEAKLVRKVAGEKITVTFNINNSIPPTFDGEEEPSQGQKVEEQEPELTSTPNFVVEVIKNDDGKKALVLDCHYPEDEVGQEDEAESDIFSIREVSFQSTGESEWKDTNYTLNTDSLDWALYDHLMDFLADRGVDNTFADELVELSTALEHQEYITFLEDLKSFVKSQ

Columns and labels:
[1] = target: C1QBP (Q Subcomponent Binding Protein) (UniProt Q07021); test: immunoprecipitation, western blot with anti-C1QBP antibody (Santa Cruz)
peroxiredoxin = target: T1, peroxiredoxin (UniProt Q06830); test: immunoprecipitation, western blot with anti-peroxiredoxin antibody
T1 sequence (looked up): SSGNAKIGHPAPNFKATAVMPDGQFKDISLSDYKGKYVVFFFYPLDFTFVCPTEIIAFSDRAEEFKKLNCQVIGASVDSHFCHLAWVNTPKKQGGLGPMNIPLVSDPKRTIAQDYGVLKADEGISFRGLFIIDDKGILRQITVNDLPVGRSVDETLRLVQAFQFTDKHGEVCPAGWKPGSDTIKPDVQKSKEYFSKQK

[2] = target: ATP synthase beta (human) (UniProt P06576); test: anti-FLAG immunoprecipitation from HEK 293 T lysate, western blot with anti-ATPB antibody

- binding [1]: binds
Binder: MRKGARRLCPAARVSMERRRPRLLRRRLRQWRWRPFLKKWTSSPPHTGG (peptide, not shown: small tags and cut ends) [FLAG-tagged ouORF21p (protein derived from ouORF21)]

- binding (peroxiredoxin): binds
B1: FLAG-tagged ouORF7p (protein derived from ouORF7) (protein, not shown: small tags and cut ends)
chain: MSAGRASGALSRTRTPLEPEPQQKPEPEPNHRCSPLNPGGALARARPPGPHVGTTA

- binding [2]: no binding
B2: FLAG-tagged uORF44p (protein derived from uORF44, an upstream ORF in the mRNA of ARHGEF9) (other, not shown: small tags and cut ends)
chain: MDSLTEQRLTSPNLPAPHLEHYSVLHCTMTLDVQTVVVFAVIVVLLLVNVILMFFLGTR
notes: Expressed from a pcDNA3 FLAG vector in HEK 293 T cells; also called uORF44 protein; mental activity-related protein
